{
  "source": "the supplement of paper PMC8728848",
  "assay_in_all_cases": "glycan array binding signal (z-score within array); higher = stronger binding",
  "details_in_all_cases": "glycan notation: IUPAC condensed, linker removed",
  "key": {"Fuc(a1-2)Gal": {"molecular_target": "Fuc(a1-2)Gal", "how_it_was_run": "(§1)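 Negative Z-scores can be read as non-binding. The Z-score is calculated within each array and then averaged across arrays of one protein sequence at different concentrations or buffers and across linkers. Arrays, 3228 in all, were curated from the Consortium for Functional Glycomics database and kept only where the protein sequence was available.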"}, "Fuc(a1-2)Gal(b1-3)GalNAc": {"molecular_target": "Fuc(a1-2)Gal(b1-3)GalNAc", "how_it_was_run": "as §1"}, "[1]": {"molecular_target": "Fuc(a1-2)Gal(b1-3)GalNAc(a1-3)[Fuc(a1-2)]Gal(b1-4)Glc", "how_it_was_run": "as §1"}, "[2]": {"molecular_target": "Fuc(a1-2)Gal(b1-3)GalNAc(a1-3)[Fuc(a1-2)]Gal(b1-4)GlcNAc", "how_it_was_run": "as §1"}, "[3]": {"molecular_target": "Fuc(a1-2)Gal(b1-3)GalNAc(b1-3)Gal", "how_it_was_run": "as §1"}, "[4]": {"molecular_target": "Fuc(a1-2)Gal(b1-3)GalNAc(b1-3)Gal(a1-4)Gal(b1-4)Glc", "how_it_was_run": "as §1"}, "[5]": {"molecular_target": "Fuc(a1-2)Gal(b1-3)GalNAc(b1-4)[Neu5Ac(a2-3)]Gal(b1-4)Glc", "how_it_was_run": "as §1"}, "Fuc(a1-2)Gal(b1-3)GlcNAc": {"molecular_target": "Fuc(a1-2)Gal(b1-3)GlcNAc", "how_it_was_run": "as §1"}, "[6]": {"molecular_target": "Fuc(a1-2)Gal(b1-3)GlcNAc(b1-2)Man(a1-3)[Fuc(a1-2)Gal(b1-3)GlcNAc(b1-2)Man(a1-6)]Man(b1-4)GlcNAc(b1-4)GlcNAc", "how_it_was_run": "as §1"}, "[7]": {"molecular_target": "Fuc(a1-2)Gal(b1-3)GlcNAc(b1-2)Man(a1-3)[Fuc(a1-2)Gal(b1-3)GlcNAc(b1-2)Man(a1-6)]Man(b1-4)GlcNAc(b1-4)[Fuc(a1-6)]GlcNAc", "how_it_was_run": "as §1"}, "[8]": {"molecular_target": "Fuc(a1-2)Gal(b1-3)GlcNAc(b1-3)Gal(b1-4)Glc", "how_it_was_run": "as §1"}, "[9]": {"molecular_target": "Fuc(a1-2)Gal(b1-3)GlcNAc(b1-3)GalNAc", "how_it_was_run": "as §1"}, "[10]": {"molecular_target": "Fuc(a1-2)Gal(b1-3)GlcNAc(b1-3)[Fuc(a1-2)Gal(b1-3)GlcNAc(b1-6)]GalNAc", "how_it_was_run": "as §1"}, "[11]": {"molecular_target": "Fuc(a1-2)Gal(b1-3)GlcNAc(b1-3)[Gal(b1-4)GlcNAc(b1-6)]Gal(b1-4)Glc", "how_it_was_run": "as §1"}, "[12]": {"molecular_target": "Fuc(a1-2)Gal(b1-3)GlcNAc(b1-3)[Neu5Ac(a2-6)Gal(b1-4)GlcNAc(b1-6)]Gal(b1-4)Glc", "how_it_was_run": "as §1"}, "[13]": {"molecular_target": "Fuc(a1-2)Gal(b1-3)GlcNAc6S", "how_it_was_run": "as §1"}, "[14]": {"molecular_target": "Fuc(a1-2)Gal(b1-3)[Fuc(a1-4)]GlcNAc", "how_it_was_run": "as §1"}, "[15]": {"molecular_target": "Fuc(a1-2)Gal(b1-3)[Fuc(a1-4)]GlcNAc(b1-2)Man(a1-3)[Fuc(a1-2)Gal(b1-3)[Fuc(a1-4)]GlcNAc(b1-2)Man(a1-3)]Man(b1-4)GlcNAc(b1-4)GlcNAc", "how_it_was_run": "as §1"}, "[16]": {"molecular_target": "Fuc(a1-2)Gal(b1-3)[Fuc(a1-4)]GlcNAc(b1-2)Man(a1-3)[Fuc(a1-2)Gal(b1-3)[Fuc(a1-4)]GlcNAc(b1-2)Man(a1-6)]Man(b1-4)GlcNAc(b1-4)[Fuc(a1-6)]GlcNAc(b1-4)[Fuc(a1-6)]GlcNAc", "how_it_was_run": "as §1"}, "[17]": {"molecular_target": "Fuc(a1-2)Gal(b1-3)[Fuc(a1-4)]GlcNAc(b1-3)[Fuc(a1-3)[Gal(b1-4)]GlcNAc(b1-6)]Gal(b1-4)Glc", "how_it_was_run": "as §1"}, "[18]": {"molecular_target": "Fuc(a1-2)Gal(b1-3)[Fuc(a1-4)]GlcNAc(b1-3)[Gal(b1-4)GlcNAc(b1-6)]Gal(b1-4)Glc", "how_it_was_run": "as §1"}, "[19]": {"molecular_target": "Fuc(a1-2)Gal(b1-4)Fuc(a1-3)]GlcNAc(b1-2)Man(a1-3)[Fuc(a1-2)Gal(b1-4)[Fuc(a1-3)]GlcNAc(b1-2)Man(a1-6)]Man(b1-4)GlcNAc(b1-4)GlcNAc", "how_it_was_run": "as §1"}, "Fuc(a1-2)Gal(b1-4)Glc": {"molecular_target": "Fuc(a1-2)Gal(b1-4)Glc", "how_it_was_run": "as §1"}, "Fuc(a1-2)Gal(b1-4)Glc6S": {"molecular_target": "Fuc(a1-2)Gal(b1-4)Glc6S", "how_it_was_run": "as §1"}, "Fuc(a1-2)Gal(b1-4)GlcNAc": {"molecular_target": "Fuc(a1-2)Gal(b1-4)GlcNAc", "how_it_was_run": "as §1"}, "[20]": {"molecular_target": "Fuc(a1-2)Gal(b1-4)GlcNAc(b1-2)Man", "how_it_was_run": "as §1"}, "[21]": {"molecular_target": "Fuc(a1-2)Gal(b1-4)GlcNAc(b1-2)Man(a1-3)[Fuc(a1-2)Gal(b1-4)GlcNAc(b1-2)Man(a1-6)]Man(b1-4)GlcNAc(b1-4)GlcNAc", "how_it_was_run": "as §1"}, "[22]": {"molecular_target": "Fuc(a1-2)Gal(b1-4)GlcNAc(b1-2)Man(a1-3)[Fuc(a1-2)Gal(b1-4)GlcNAc(b1-2)Man(a1-6)]Man(b1-4)GlcNAc(b1-4)[Fuc(a1-6)]GlcNAc", "how_it_was_run": "as §1"}, "[23]": {"molecular_target": "Fuc(a1-2)Gal(b1-4)GlcNAc(b1-2)[Fuc(a1-2)Gal(b1-4)GlcNAc(b1-4)]Man(a1-3)[Fuc(a1-2)Gal(b1-4)GlcNAc(b1-2)Man(a1-6)]Man(b1-4)GlcNAc(b1-4)GlcNAc", "how_it_was_run": "as §1"}, "[24]": {"molecular_target": "Fuc(a1-2)Gal(b1-4)GlcNAc(b1-3)Gal(b1-4)GlcNAc", "how_it_was_run": "as §1"}},
  "note": "This is one part of the list.",
  "data": [
    {"binder": "B3GalT2 (Rattus norvegicus) (protein) LMLQWRRRHCCFAKMSWNAKRSLFRTHLMGVLSLVFLFAMFLFFNHHDWLPGRPGFKENPVTYTFRGFRSTKTETNQSSLRNIWKEVVPQTLRPQTATNSNNTELSPQGVTGLENTLSANGSIYNEKGTGHPNSYHFKYIINEPEKCQEKSPFLILLIAAEPGQIEARRAIRQTWGNETLAPGIQITRIFLLGISIKLNGYLQHAIQEESIQYHDIIQQEYLDTYYNLTIKTLMGMNWVATYCPHTPYVMKTDSDMFVNTEYLIHKLLKPDLPPRHNYFTGYLMRGYAPNRNKDSKWYMPPDLYPSERYPVFCSGTGYVFSGDLAEKIFKVSLGIRRLHLEDVYVGICLAKLRVDPVPPPNEFVFNHWRVSYSSCKYSHLITSHQFQPSELIKYWNHLQQNKHNACVNAAKEKAGRYRHRKLH", "values": [
      {"measurement": "glycan array binding signal (z-score)", "setting": "Fuc(a1-2)Gal", "value": 0.694},
      {"measurement": "glycan array binding signal (z-score)", "setting": "Fuc(a1-2)Gal(b1-3)GalNAc", "value": -0.296},
      {"measurement": "glycan array binding signal (z-score)", "setting": "[1]", "value": -0.857},
      {"measurement": "glycan array binding signal (z-score)", "setting": "[2]", "value": 0.065},
      {"measurement": "glycan array binding signal (z-score)", "setting": "[3]", "value": -0.654},
      {"measurement": "glycan array binding signal (z-score)", "setting": "[4]", "value": -0.34},
      {"measurement": "glycan array binding signal (z-score)", "setting": "[5]", "value": -0.823},
      {"measurement": "glycan array binding signal (z-score)", "setting": "Fuc(a1-2)Gal(b1-3)GlcNAc", "value": 0.359},
      {"measurement": "glycan array binding signal (z-score)", "setting": "[6]", "value": -0.541},
      {"measurement": "glycan array binding signal (z-score)", "setting": "[7]", "value": -0.726},
      {"measurement": "glycan array binding signal (z-score)", "setting": "[8]", "value": -0.126},
      {"measurement": "glycan array binding signal (z-score)", "setting": "[9]", "value": 0.734},
      {"measurement": "glycan array binding signal (z-score)", "setting": "[10]", "value": 0.154},
      {"measurement": "glycan array binding signal (z-score)", "setting": "[11]", "value": -0.899},
      {"measurement": "glycan array binding signal (z-score)", "setting": "[12]", "value": -0.965},
      {"measurement": "glycan array binding signal (z-score)", "setting": "[13]", "value": -0.012},
      {"measurement": "glycan array binding signal (z-score)", "setting": "[14]", "value": -0.163},
      {"measurement": "glycan array binding signal (z-score)", "setting": "[15]", "value": -0.761},
      {"measurement": "glycan array binding signal (z-score)", "setting": "[16]", "value": -0.602},
      {"measurement": "glycan array binding signal (z-score)", "setting": "[17]", "value": -1.1},
      {"measurement": "glycan array binding signal (z-score)", "setting": "[18]", "value": -1.07},
      {"measurement": "glycan array binding signal (z-score)", "setting": "[19]", "value": -1.01},
      {"measurement": "glycan array binding signal (z-score)", "setting": "Fuc(a1-2)Gal(b1-4)Glc", "value": -0.322},
      {"measurement": "glycan array binding signal (z-score)", "setting": "Fuc(a1-2)Gal(b1-4)Glc6S", "value": 0.2},
      {"measurement": "glycan array binding signal (z-score)", "setting": "Fuc(a1-2)Gal(b1-4)GlcNAc", "value": 1.14},
      {"measurement": "glycan array binding signal (z-score)", "setting": "[20]", "value": -0.797},
      {"measurement": "glycan array binding signal (z-score)", "setting": "[21]", "value": -0.782},
      {"measurement": "glycan array binding signal (z-score)", "setting": "[22]", "value": -0.933},
      {"measurement": "glycan array binding signal (z-score)", "setting": "[23]", "value": -1.07},
      {"measurement": "glycan array binding signal (z-score)", "setting": "[24]", "value": -0.829}
    ]}
  ]
}
